Results taken from publication PMC5524754, “Angiopoietin-like 4 induces a β-catenin-mediated upregulation of ID3 in fibroblasts to reduce scar collagen expression” (Scientific Reports, 2017).

Target: T1, cadherin-11 (CDH11), endogenous in human primary dermal fibroblasts (human (endogenous in primary dermal fibroblasts)) (UniProt P55287)
T1 sequence: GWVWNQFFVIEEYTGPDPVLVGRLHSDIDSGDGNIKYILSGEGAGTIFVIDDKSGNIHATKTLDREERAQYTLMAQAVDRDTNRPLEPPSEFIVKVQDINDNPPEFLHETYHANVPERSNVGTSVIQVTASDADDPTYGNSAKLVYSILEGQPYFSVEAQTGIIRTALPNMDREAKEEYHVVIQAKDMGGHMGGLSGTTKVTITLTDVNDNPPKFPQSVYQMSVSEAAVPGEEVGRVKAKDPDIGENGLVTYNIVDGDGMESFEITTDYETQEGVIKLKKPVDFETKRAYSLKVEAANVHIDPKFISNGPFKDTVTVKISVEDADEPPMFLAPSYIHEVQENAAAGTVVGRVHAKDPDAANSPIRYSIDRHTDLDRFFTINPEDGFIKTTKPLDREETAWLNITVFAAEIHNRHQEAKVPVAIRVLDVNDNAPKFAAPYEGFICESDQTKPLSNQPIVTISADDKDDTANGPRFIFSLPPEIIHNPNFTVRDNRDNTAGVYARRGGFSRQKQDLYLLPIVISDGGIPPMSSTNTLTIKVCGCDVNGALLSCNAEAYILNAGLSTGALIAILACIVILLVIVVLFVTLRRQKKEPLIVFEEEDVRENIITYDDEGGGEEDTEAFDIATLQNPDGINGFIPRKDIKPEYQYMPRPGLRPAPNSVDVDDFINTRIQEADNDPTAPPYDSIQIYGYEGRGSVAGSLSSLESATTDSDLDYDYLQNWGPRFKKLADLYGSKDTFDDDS
Assay: co-IP; immunoprecipitation with anti-Frizzled and anti-CDH11 from lysates of human fibroblasts; both proteins endogenous

binding: no binding
Substance: Frizzled (Wnt receptor), endogenous in human fibroblasts

These are yes or no findings as the source states them, for the method shown. In cells and extracts the contact can be indirect.
